Results from PubChem BioAssay AID445 (National Center for Advancing Translational Sciences (NCATS), 2006).
The list shows a part of the results. The main result of the screen is listed elsewhere. These columns were measured beside it and carry no call. Compounds called inactive in the main read-out are mostly missing here. Potencies come from curve fits of mixed quality, noted in brackets.

Test: IkB Signaling
Conditions: ABC-DLBCL IkBa-CBG/CBR dual luciferase ratio (green luciferase fused to IkBa over red control in OCI-Ly3 lymphoma cells), 4 h; measured here: control luc red channel unless noted
Method in brief: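 In this assay, an IκBα–CBG68 fusion accumulates when IKK-driven degradation is blocked; native CBR normalizes for cell number. OCI-Ly3 cells were treated 4 h with compound and doxycycline, then green and red light read after Chroma-Glo addition.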

| SMILES | AC50 |
| --- | --- |
| N#Cc1c(NC(=O)CSc2nc(N)cc(=O)[nH]2)sc2c1CCCCCC2 | 7.94 µM [falling, full curve, poor fit] |
| CCOC(=O)CNC(=O)N1CCc2cc(S(=O)(=O)N3CCC(C)CC3)ccc21 | 20 µM [falling, partial curve] |
| Cc1cccc(OC(=O)c2cc(-c3ccc4c(c3)OCCO4)on2)c1 | 25.1 µM [falling, single point] |
| CC(C)(C)OC(=O)N1CCC(c2c(C(=O)N3CCN(c4ncccn4)CC3)cnn2-c2ccccc2)CC1 | 0.01 µM [rising, full curve] |
| O=C1CC(N2CCN(c3ccc(O)cc3)CC2)C(=O)N1Cc1cccs1 (stereo not given) | 12.6 µM [falling, partial curve] |
| COc1ccc(-c2nc3ccccc3o2)cc1NC(=O)C(C)Oc1ccc(Cl)cc1Cl (stereo not given) | 12.6 µM [falling, partial curve] |
| CC(C)C12CN3CC(C(C)C)(CN(C1)C3c1ccc(Cl)cc1)C2=O (stereo not given) | 25.1 µM [falling, single point] |
| Cc1nc2ccccc2n1CCc1nc2c3ccccc3nc(SCC(=O)Nc3ccc(Br)cc3F)n2n1 | 15.8 µM [rising, partial curve, poor fit] |
| CN1CCN(c2oc(-c3ccc(COc4ccc(Cl)cc4)o3)nc2C#N)CC1 | 20 µM [falling, partial curve] |
| O=C(CN1C(=O)CCc2cc(S(=O)(=O)N3CCOCC3)ccc21)Nc1cccc(Cl)c1 | 12.6 µM [falling, partial curve] |
| COc1ccc(NC(=O)Cn2cnc3sc(C)c(S(=O)(=O)N4CCN(C)CC4)c3c2=O)cc1Cl | 10 µM [falling, partial curve] |
| O=C(Nc1ccccc1)c1cc([N+](=O)[O-])ccc1Cl | 3.98 µM [falling, partial curve] |
| O=C(Nc1cccc(NC(=O)c2ccc(Br)o2)c1)c1ccccc1 | 12.6 µM [falling, partial curve] |
| COc1cccc(C2c3c(oc4ccc(C)cc4c3=O)C(=O)N2CCCN2CCOCC2)c1OC (stereo not given) | 1.58 µM [rising, full curve, poor fit] |
| COC(=O)C1=C(N)Oc2cc(C)n(Cc3ccco3)c(=O)c2C1c1cccc(Cl)c1 (stereo not given) | 31.6 µM [falling, partial curve] |
| Cc1ccccc1-n1cc(-c2ccccc2)nc1SCC(=O)Nc1ccc(F)cc1 | 7.94 µM [falling, partial curve] |
| CCOC(=O)c1cccc(NC2c3ccccc3C(=O)N2Cc2ccco2)c1 (stereo not given) | 20 µM [falling, partial curve] |
| COc1ccc(C2C(=O)N(C3CCC(C)CC3)CC(=O)N2Cc2ccccc2Cl)cc1OC (stereo not given) | 39.8 µM [falling, single point] |
| COc1ccc(-c2nnc(SCC(=O)Nc3sc4c(c3C#N)CCC4)n2CC2CCCO2)cc1 (stereo not given) | 31.6 µM [falling, partial curve] |
| Cc1noc(Cn2c(=O)c3ccccc3n(CC(=O)Nc3cccc(Cl)c3C)c2=O)n1 | 31.6 µM [falling, single point] |

An excerpt of these results, bar-delimited.
SMILES | AC50
O=C(Nc1ccccc1)c1cc([N+](=O)[O-])ccc1Cl | 3.98 µM [falling, partial curve]
O=C(Nc1cccc(NC(=O)c2ccc(Br)o2)c1)c1ccccc1 | 12.6 µM [falling, partial curve]

The list goes on.

| SMILES | AC50 |
| --- | --- |
| COc1cccc(NC(=O)CSc2nc3n[nH]c(C)c3c(=N)n2-c2cccc(OC)c2)c1 | 5.01 µM [falling, partial curve] |
| Cc1cc(C(=O)OCC(=O)Nc2cc(C(F)(F)F)ccc2N2CCOCC2)c(C)o1 | 39.8 µM [falling, single point] |
| C=CCn1c(C)cc(C(=O)CSc2nc3ccccc3o2)c1C | 39.8 µM [falling, single point] |
| CC(C)c1ccc(OCC(=O)Nc2c(Cl)ccc3nsnc23)cc1 | 2 µM [rising, full curve] |
| O=C(c1cnc(N2CCCCC2)c2ccccc12)N1CCN(c2ccccc2F)CC1 | 39.8 µM [falling, single point] |
| CN(C)c1nc(N)nc(Nc2ccccc2C#N)n1 | 3.16 µM [falling, full curve] |
| Oc1ccccc1NCC(O)Cn1ccc2ccccc21 (stereo not given) | 0.501 µM [falling, partial curve] |
| COc1ccc(CNC(=O)CCc2c(C)nn(-c3ccc(N4CCCCC4)nn3)c2C)c(OC)c1 | 31.6 µM [falling, single point] |
| CCOC(=O)COc1ccc(S(=O)(=O)Nc2ccc3c(c2)OCCO3)cc1 | 15.8 µM [falling, partial curve] |
| Cc1ccc(-n2ncc(C(=O)NCCCN3CCN(c4cccc(Cl)c4)CC3)c2-n2cccc2)cc1 | 15.8 µM [falling, partial curve] |
| CC(=O)N1CCc2cc(CNS(=O)(=O)c3ccc(Br)s3)ccc21 | 39.8 µM [falling, single point] |
| CC1CCCN(Cc2cn3c(-c4cccc(Br)c4)nnc3s2)C1 (stereo not given) | 25.1 µM [falling, partial curve] |
| Cc1cccc(N2CCN(C(=O)COc3cc(=O)n(C)c4ccccc34)CC2)c1C | 15.8 µM [falling, partial curve] |
| Cc1cccc(CNC(=O)C2CCN(c3nnc(-n4c(C)ccc4C)s3)CC2)c1 | 20 µM [falling, partial curve] |
| Cc1cc2oc(=O)c(CC(=O)O)c(C)c2c2occ(-c3ccc(F)cc3)c12 | 31.6 µM [falling, partial curve, poor fit] |
| CCN1C(=O)C2(Nc3ccccc3-c3nc4ccccc4n32)c2cc(OC)ccc21 (stereo not given) | 15.8 µM [falling, partial curve] |
| O=C(c1ccc2c(c1)OCCO2)N(Cc1cccnc1)c1nc2c(F)cccc2s1 | 15.8 µM [falling, partial curve] |
| Cc1cccc(-c2noc(CN(C(=O)c3ccccc3Cl)C(C)C)n2)c1 | 25.1 µM [falling, single point] |
| COc1ccc(CCNC(=O)CCCn2c(=O)c3ccccc3n(Cc3ccc(F)cc3Cl)c2=O)cc1OC | 39.8 µM [falling, single point] |
| Cn1c(C(=O)NCCc2ccccc2)cc2c(=O)n3ccccc3nc21 | 25.1 µM [falling, single point] |
